This assay in a line: qHTS Assay for Lipid Storage Modulators in Drosophila S3 Cells.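 As to cell number change: cells counted by Cell Tracker Red CMTPX staining in the red channel.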 To be noted: BODIPY lipid droplet fluorescence, 18-24 h; for cell number change: measured here: cell count max response, cells fed with added oleic acid. The method, boiled down:
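Drosophila S3 cells loaded with oleic acid (400 uM, as added) and compounds at several concentrations; lipid droplets imaged by 488-nm laser-scanning cytometry, 500–530 nm intensity and object ratio to cell channel. Percent activity normalized to 20 uM Triacsin C.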
Background: Quantitative high-throughput screening tests each substance at several concentrations.

[1] abbreviates: measured here: lipid fluorescence (Fed channel) AC50, cells fed with added oleic acid.
The mark [2] stands for this setting: measured here: cell number channel AC50, cells fed with added oleic acid.

For orientation: AC50 means the midpoint of the concentration-response curve, whichever way the signal moves.

Some of the results follow. These are further read-outs of the screen, such as a control signal, another cell line or another target. No call is given for them. Most of these compounds were active or inconclusive in the main read-out, so they are no random draw. Potencies come from curve fits of mixed quality, noted in brackets.

As for `COc1ccc(/C=C/c2nnc(NC(=O)CC(C)C)s2)cc1`, the cell number change was -29.2%. The AC50 under setting [1] is 29.1 µM [falling, single point]. For `CC(=O)C1C(c2ccc(OC(F)F)cc2)NC(=O)NC1(O)C(F)(F)F` (stereo not drawn), the cell number change is -13.1%. Same read-out and setting: then `Cc1ccc(C2=NC(C)(C)N=C2SCC(=O)Nc2ccc(Cl)cc2)cc1`, with 10.5%. Same read-out and setting: as for `Cn1c(CNC(=O)c2ccco2)nnc1SCC(=O)N1c2ccccc2Sc2ccccc21`, the figure is -5.36%. `COc1ccc(C(=O)CC(=O)C(=O)NCCc2cccc(C)c2)cc1`: the cell number change worked out at 69.3%. Also, the AC50 under setting [2] is 29.1 µM [rising, single point]. For the same molecule, under setting [1], the AC50 is 29.1 µM [rising, single point]. For the molecule `COc1ccccc1CNC(=O)CCC(=O)Nc1nnc(C)s1`, the cell number change was -22.8%. Under setting [2], the AC50 was 6.51 µM [falling, single point]. The concentration at half-maximal activity (AC50) under setting [1] was 9.2 µM [falling, single point]. `O=C(Nc1nncs1)c1ccc2c(c1)OCO2`: under setting [1], the AC50 is 6.51 µM [falling, single point].

Turning to `CCn1c(=O)n(CC(=O)NCC2CCCO2)c(=O)c2c3c(sc21)CCCC3` (stereo not drawn), the cell number change is 5.19%. On to `CCCCn1c(S(=O)(=O)O)nc2ccccc21`, for which the cell number change was -0.52%. In addition, the half-maximal activity concentration (AC50) under setting [1] was 29.1 µM [falling, single point]. Consider `COc1cc(F)c(C2=CC(=O)CC(C)(C)C2)cc1F`, for which the cell number change is -13.7%. Further, under setting [1], the AC50 is 0.116 µM [falling, full curve, poor fit]. For the molecule `O=C(CSc1nc(-c2cccs2)cc(C(F)(F)F)n1)Nc1cc(OCC(F)(F)C(F)F)cc([N+](=O)[O-])c1`, the cell number change is -31.9%. For the same molecule, the AC50 under setting [2] is 29.1 µM [falling, single point]. In addition, the AC50 under setting [1] was 29.1 µM [falling, single point]. For the molecule `CCOC(=O)CSc1nc2ccccc2c(=O)n1CC`, the cell number change is -3.86%. `COc1ccc(CN2CCN(Cc3ccc(Br)cc3)CC2)c(OC)c1OC`: the cell number change came out at 73%. Moreover, the concentration at half-maximal activity (AC50) under setting [2] was 2.31 µM [falling, single point]. As for `CCN(CC)S(=O)(=O)c1ccc(NC(=O)CO/N=C(\N)c2ccccc2)cc1`, under setting [2], the AC50 was 3.66 µM [rising, single point].

As to `COCCCn1c(SCC(=O)Nc2nnc(C)s2)nnc1-c1ccoc1C`, the cell number change was 17.4%. For the same molecule, the AC50 under setting [1] was 1.3 µM [rising, single point].

On to `CCOc1cc(/C=N/NC(=O)c2cc3c(ccc4ccccc43)o2)ccc1O`, for which the cell number change was -42.2%. Also, under setting [2], the concentration at half-maximal activity (AC50) was 7.31 µM [falling, partial curve, poor fit].

Take `CCOC(=O)c1sc2nccc(N(C)C)c2c1N=CNOCc1ccccc1`: the cell number change worked out at 22.2%. For the same molecule, under setting [1], the AC50 is 7.31 µM [rising, partial curve]. Take `Cc1ccc(C)c(-n2nnnc2SCC(=O)Nc2cccc(-c3nnc4n3CCCCC4)c2)c1`: the cell number change stood at 1.05%. The AC50 under setting [1] was 3.26 µM [rising, single point]. `COc1cc([N+](=O)[O-])ccc1NC(=O)NNC(=O)c1sccc1C`: the cell number change was -25.2%. Consider `NC(=O)c1c(NC(=O)CCCn2cnc([N+](=O)[O-])n2)sc2c1CCCC2`, for which the cell number change was -10.2%. The AC50 under setting [2] was 2.59 µM [rising, partial curve]. Consider `CC(C)CC(C(=O)NC(C)(C)C)N(Cc1ccccc1Cl)C(=O)c1snc(C(N)=O)c1N` (stereo not drawn), for which the cell number change was -64.3%. In addition, the AC50 under setting [2] is 14.6 µM [falling, partial curve]. Turning to `O=C(COC(=O)c1ccccc1C(=O)N1CCN(c2ccc(F)cc2)CC1)NCc1ccccc1`, the cell number change was 61.9%. Further, the AC50 under setting [2] was 7.31 µM [rising, partial curve]. For the same molecule, under setting [1], the half-maximal activity concentration (AC50) is 6.51 µM [rising, single point]. As for `COCCn1c(SCC(=O)Nc2cc(C)cc(C)c2)nc2ccccc2c1=O`, under setting [1], the AC50 is 3.26 µM [falling, partial curve]. Take `CC1(C(=O)NC2CCCCCCC2)CCC(=O)N1CCN1CCOCC1` (stereo not drawn): the cell number change was -25.9%. Further, the AC50 under setting [2] is 0.651 µM [falling, full curve, poor fit]. In addition, under setting [1], the AC50 was 0.731 µM [falling, full curve]. As for `COCc1c(C(N)=O)nnn1-c1nonc1N`, the cell number change is -4.89%. In addition, the AC50 under setting [1] was 0.366 µM [falling, full curve, poor fit].

With `COc1cccc(CC(=O)OCC(=O)Nc2c(C)nn(-c3ccccc3)c2C)c1`, the cell number change came out at 5.62%.

In the case of `Cc1ccsc1/C=N/NC(=O)CN1CCN(Cc2ccccc2)CC1`, the cell number change was found to be 11.6%. Moreover, under setting [1], the AC50 was 0.231 µM [falling, full curve, poor fit]. For the molecule `CCOC(=O)C1CCCN(S(=O)(=O)c2ccc3c(c2)C(C)(C)C(=O)N3C)C1` (stereo not drawn), the cell number change amounted to 16.5%. Further, the AC50 under setting [1] is 29.1 µM [falling, single point]. On to `COc1ccc(N(C(=O)Cn2nnc(-c3ccc(F)cc3)n2)C(C)C(=O)NC2CCCC2)cc1` (stereo not drawn), for which the AC50 under setting [1] is 1.12 µM [falling, partial curve]. For `C/C(=N\NC(=O)c1cccnc1)c1ccc(OC2OCCOC2Oc2ccc(/C(C)=N/NC(=O)c3cccnc3)cc2)cc1` (stereo not drawn), the AC50 by setting is: under setting [2], 0.461 µM [rising, single point]; under setting [1], 6.51 µM [falling, partial curve, poor fit]. On to `c1ccc(-c2ccc3c(c2)c2c4n3CCN=C4CCC2)cc1`, for which the cell number change is -2.65%. Besides, the AC50 under setting [2] was 6.51 µM [falling, single point].

`NS(=O)(=O)c1ccc(CCNC(=O)c2ccc(NS(=O)(=O)c3ccc4[nH]c(=O)[nH]c4c3)cc2)cc1`: the cell number change is -13%. Under setting [1], the AC50 was 4.11 µM [falling, full curve, poor fit].

As to `CCC(Oc1ccccc1)C(=O)NC1CCCCCC1` (stereo not drawn), the cell number change was -1.66%. Further, the AC50 under setting [1] is 2.91 µM [rising, partial curve]. As for `Cn1nnnc1SC1CC(=O)N(c2ccccc2)C1=O` (stereo not drawn), the cell number change is -30.2%. In addition, the AC50 under setting [2] was 29.1 µM [falling, single point]. Moreover, the concentration at half-maximal activity (AC50) under setting [1] was 23.1 µM [falling, single point]. In the case of `CC(=O)c1ccc(Nc2cnn(C34CC5CC(CC(CC(=O)O)(C5)C3)C4)c(=O)c2Cl)cc1`, the cell number change is 16.7%. Also, the AC50 under setting [2] is 6.51 µM [falling, single point]. The AC50 under setting [1] was 6.51 µM [falling, single point]. On to `Cn1c(-c2c(N)n(-c3ccccc3)c3nc4ccccc4nc23)nc2ccccc21`, for which the cell number change is -33.5%. In addition, under setting [2], the AC50 is 7.31 µM [falling, partial curve]. Besides, the AC50 under setting [1] is 20.6 µM [falling, single point]. As to `Cc1cc(C(=O)NCc2ccccc2F)c2ccccc2n1`, the cell number change worked out at 39.1%. Take `Cc1ccc(-c2cc(-c3ccccc3)c3c(N)c(S(C)(=O)=O)sc3n2)cc1`: the cell number change was found to be 145%. Also, under setting [2], the AC50 is 9.2 µM [rising, partial curve]. In addition, the AC50 under setting [1] was 2.31 µM [rising, partial curve].

Regarding `O=C(O)c1cccc(S(=O)(=O)N2CCC(Cc3ccccc3)CC2)c1`, the cell number change amounted to 31.8%. In addition, under setting [2], the AC50 is 36.6 µM [rising, single point]. Moreover, the AC50 under setting [1] was 29.1 µM [rising, single point]. With `CCn1c(SCC(=O)N2CCN(C)CC2)nc2c1c(=O)n(C)c(=O)n2C`, the cell number change amounted to 23.5%. In addition, the AC50 under setting [1] is 6.51 µM [falling, single point]. As to `CC1CCN(S(=O)(=O)c2ccc([N+](=O)[O-])cc2)CC1`, the cell number change was 1.09%. Moreover, under setting [2], the AC50 was 6.51 µM [rising, single point]. `N/C(=N\OC(=O)CCN1C(=O)c2ccccc2C1=O)c1ccccn1`: the cell number change was determined as 143%. Also, the AC50 under setting [2] is 14.6 µM [rising, partial curve]. In the case of `CC(=O)c1c(C)[nH]c(C(=O)CN2C(=O)NC(C)(c3ccc(C)cc3)C2=O)c1C` (stereo not drawn), the cell number change is 22.8%. Besides, under setting [2], the AC50 was 1.16 µM [rising, full curve, poor fit].

Turning to `CN(C)c1ccc(NC(=O)C2C3C=CC(C3)C2C(=O)O)cc1` (stereo not drawn), the cell number change was -30.6%. Moreover, the AC50 under setting [2] was 29.1 µM [falling, single point]. `O=C(N/N=C/c1ccccn1)c1ccc(NC(=O)c2cccc([N+](=O)[O-])c2)cc1`: the cell number change is -53.2%. The AC50 under setting [2] is 29.1 µM [falling, single point]. `COc1ccc(C(=O)NC2CC3CCCC(C2)N3Cc2ccccc2)cc1` (stereo not drawn): the cell number change is -18.1%. Consider `CN1CCN(Cc2cn[nH]c2-c2ccc(F)cc2F)[C@@H](c2ccccc2)C1`, for which the cell number change is -4.01%. Under setting [1], the AC50 was 0.517 µM [falling, full curve, poor fit].

For the molecule `Cc1ccccc1OC(=O)c1cccnc1`, the cell number change is 47.7%. As to `COc1ccccc1CNC(=O)CS(=O)Cc1nc(-c2ccccc2C)oc1C` (stereo not drawn), the AC50 runs as follows: under setting [2], 0.0291 µM [rising, full curve, poor fit]; under setting [1], 1.64 µM [rising, partial curve]. For `O=C1NN(c2ccccc2)C(=O)/C1=C/c1ccc(-c2ccc(Cl)c(C(=O)O)c2)o1`, the cell number change is -41.2%. The AC50 under setting [2] is 6.51 µM [falling, full curve]. Also, the AC50 under setting [1] was 18.4 µM [falling, single point]. As to `CC(C)(C)NC(=O)NC(=O)CN1CCN(c2ncc(C(F)(F)F)cc2Cl)CC1`, the AC50 under setting [2] was 0.461 µM [rising, full curve] and the AC50 under setting [1] is 0.731 µM [rising, partial curve, poor fit]. In the case of `Cc1cc(=O)oc2cc(OC(=O)c3ccccc3)ccc12`, the cell number change is -0.841%. Besides, the AC50 under setting [1] was 0.731 µM [falling, single point].

Take `CN(CC(=O)Nc1cccc(F)c1)C(=O)c1ccc(S(=O)(=O)N2CCCC2)cc1`: the cell number change is -45.1%. Under setting [2], the AC50 is 18.4 µM [falling, single point]. Moreover, the AC50 under setting [1] is 32.6 µM [falling, single point].

`CCCCNC(=O)CCc1c(C)nc2nc(-c3cc(OC)cc(OC)c3)nn2c1C`: the concentration at half-maximal activity (AC50) was 3.26 µM [rising, partial curve] under setting [2] and 3.26 µM [rising, partial curve] under setting [1]. Consider `Nc1nc(Nc2ccccc2)sc1C(=O)c1ccccc1`, for which the cell number change was 16.4%. Moreover, the AC50 under setting [1] is 29.1 µM [rising, single point]. Turning to `Cc1ccc(NC(=S)NC(NC(=O)N(C)C)C(Cl)(Cl)Cl)cc1` (stereo not drawn), the cell number change was -2.47%. Further, the AC50 under setting [2] is 6.51 µM [rising, partial curve, poor fit]. Consider `c1ccc(CN2CCC(Nc3nc(-c4cccs4)nc4ccccc34)CC2)cc1`, for which the cell number change is -57.5%. Further, the AC50 under setting [2] is 29.1 µM [falling, single point]. In addition, the AC50 under setting [1] is 25.9 µM [falling, single point].

Values taken from PubChem BioAssay AID2685 (National Center for Advancing Translational Sciences (NCATS), 2010).
